# From paper PMC10372072
# By UniProt entry, the sequences of proteins in these tests, tags left out.
# UniProt P50750: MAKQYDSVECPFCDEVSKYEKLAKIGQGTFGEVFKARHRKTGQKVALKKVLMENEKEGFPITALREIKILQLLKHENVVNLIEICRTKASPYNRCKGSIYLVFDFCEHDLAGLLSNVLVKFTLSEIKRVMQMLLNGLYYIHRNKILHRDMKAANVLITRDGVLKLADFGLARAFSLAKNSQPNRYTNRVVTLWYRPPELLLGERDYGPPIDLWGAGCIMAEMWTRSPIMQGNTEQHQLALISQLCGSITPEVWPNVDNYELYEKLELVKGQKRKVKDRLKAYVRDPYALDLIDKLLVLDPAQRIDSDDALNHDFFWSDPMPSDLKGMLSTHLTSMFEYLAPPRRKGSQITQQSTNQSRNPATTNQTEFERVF
# UniProt Q96SW2: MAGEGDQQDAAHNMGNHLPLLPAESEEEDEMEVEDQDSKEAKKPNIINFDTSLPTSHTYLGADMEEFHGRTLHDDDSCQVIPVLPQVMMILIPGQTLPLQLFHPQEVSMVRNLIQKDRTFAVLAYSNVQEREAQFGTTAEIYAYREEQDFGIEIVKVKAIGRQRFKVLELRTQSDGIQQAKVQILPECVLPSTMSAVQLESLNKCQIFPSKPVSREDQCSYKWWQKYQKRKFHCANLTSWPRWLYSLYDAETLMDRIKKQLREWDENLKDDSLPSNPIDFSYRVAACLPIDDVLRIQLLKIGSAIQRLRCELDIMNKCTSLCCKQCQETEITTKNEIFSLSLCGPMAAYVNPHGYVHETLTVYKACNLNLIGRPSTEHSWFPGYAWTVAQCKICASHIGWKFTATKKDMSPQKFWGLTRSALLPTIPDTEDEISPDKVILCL
# Results are given in words; binding and its absence hold for the method and conditions named. Some results given as binding are weak or reduced against the parent protein; the word gives no strength.
# Target: human recombinant CDK9 protein (cyclin-dependent kinase 9) (human) (UniProt P50750)
# Assay: SPR; CDK9 immobilised on a CM5 chip; free CRBN protein without DbTACs, twofold serial dilution in PBS-P running buffer; multicycle kinetics, 298.15 K; both purified
substance,measurement,value
human recombinant CRBN protein (cereblon) (from UniProt Q96SW2 1-442),binding,binds weakly
